Results taken from patent publication US20140275090A1, “BILE ACID RECYCLING INHIBITORS FOR TREATMENT OF PRIMARY SCLEROSING CHOLANGITIS AND INFLAMMATORY BOWEL DISEASE” (Lumena Pharmaceuticals, Inc., priority 2013, published 2014).

Assay: Body weight, hamsters dosed 28 days
Format: in vivo, golden Syrian hamster
Conditions: hamster

In the case of `CCCCC1(CCCC)CS(=O)(=O)c2ccc(N(C)C)cc2[C@@H](c2ccc(OCc3ccc(C[N+]45CCN(CC4)CC5)cc3)cc2)[C@H]1O` [LUM001], the “Body Weight (BW)” value (5 mg/kg/day Q.D. gavage) is reported as 130 ± 5 g, the “Body Weight (BW)” value (15 mg/kg/day Q.D. gavage) is reported as 136 ± 4 g and the “Body Weight (BW)” value (50 mg/kg/day Q.D. gavage) is reported as 130 ± 4 g.
